Measured values reported in the supplement of paper PMC6078165.

System: MDAMB231
Assay: relative JC-1 red fluorescence (viability) vs pre-drug, coculture with fibroblast (fraction); higher = more viable cancer cells
Description: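 JC-1 labelled TNBC cells cocultured 1:1 (1,500 cells each) with CellTrace Violet stained primary or stromal fibroblasts in 384-well plates in FluoroBrite medium, treated with one of 42 anticancer drugs at 0.1, 1, 10 or 100 uM. JC-1 red fluorescence (mitochondrial integrity in cancer cells only) was read by plate reader every 8 h for 72 h. Values are normalised to each well's pre-drug value. The stock of one drug was tenfold lower, so its dose labels may be too high.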

Nc1ncn([C@@H]2O[C@H](CO)[C@@H](O)[C@H]2O)c(=O)n1 [Azacitidine]
relative JC-1 red fluorescence
Details	8 h	16 h	24 h	32 h	40 h	48 h	56 h	64 h	72 h
10 µM, coculture fibroblast: C12385	0.736 ± 0.009	0.748 ± 0.0024	0.645 ± 0.05	0.672 ± 0.014	0.624 ± 0.016	0.59 ± 0.034	0.548 ± 0.041	0.538 ± 0.051	0.516 ± 0.053
10 µM, coculture fibroblast: H6013	0.9156 ± 0.0034	0.845 ± 0.011	0.7965 ± 0.0014	0.7589 ± 0.0042	0.727 ± 0.013	0.697 ± 0.0084	0.7028 ± 0.0051	0.6786 ± 0.0025	0.6445 ± 0.0047
10 µM, coculture fibroblast: H6019	0.799 ± 0.019	0.771 ± 0.018	0.735 ± 0.025	0.732 ± 0.024	0.708 ± 0.023	0.678 ± 0.032	0.649 ± 0.033	0.631 ± 0.037	0.6 ± 0.036
10 µM, coculture fibroblast: H6076	0.848 ± 0.043	0.773 ± 0.046	0.752 ± 0.031	0.742 ± 0.025	0.726 ± 0.0092	0.703 ± 0.011	0.69004 ± 0.00024	0.681 ± 0.0086	0.6922 ± 0.0046
10 µM, coculture fibroblast: H6231	0.907 ± 0.047	0.83 ± 0.044	0.803 ± 0.033	0.755 ± 0.024	0.718 ± 0.024	0.68 ± 0.024	0.634 ± 0.026	0.602 ± 0.017	0.579 ± 0.015
10 µM, coculture fibroblast: HADF	0.875 ± 0.0017	0.8514 ± 0.0081	0.827 ± 0.01	0.811 ± 0.019	0.773 ± 0.017	0.718 ± 0.019	0.708 ± 0.015	0.692 ± 0.011	0.652 ± 0.019
10 µM, coculture fibroblast: HCFa	0.876 ± 0.029	0.836 ± 0.021	0.821 ± 0.018	0.806 ± 0.013	0.7734 ± 0.0059	0.719 ± 0.011	0.718 ± 0.025	0.685 ± 0.035	0.644 ± 0.034
10 µM, coculture fibroblast: HCPF	0.889 ± 0.019	0.826 ± 0.022	0.786 ± 0.02	0.767 ± 0.012	0.732 ± 0.015	0.699 ± 0.015	0.668 ± 0.0069	0.6309 ± 0.0037	0.604 ± 0.0048
10 µM, coculture fibroblast: HHSteC	0.907 ± 0.028	0.883 ± 0.02	0.839 ± 0.031	0.803 ± 0.034	0.775 ± 0.016	0.749 ± 0.017	0.732 ± 0.026	0.7009 ± 0.0043	0.6711 ± 0.0039
10 µM, coculture fibroblast: HMF	0.87 ± 0.014	0.84 ± 0.025	0.833 ± 0.031	0.821 ± 0.035	0.8 ± 0.021	0.768 ± 0.025	0.737 ± 0.011	0.727 ± 0.011	0.7118 ± 0.002
10 µM, coculture fibroblast: HPFa	0.921 ± 0.012	0.914 ± 0.015	0.8744 ± 0.0078	0.8398 ± 0.0032	0.8412 ± 0.0054	0.811 ± 0.015	0.77 ± 0.01	0.747 ± 0.0085	0.716 ± 0.011
10 µM, coculture fibroblast: HUF	0.83 ± 0.038	0.755 ± 0.035	0.754 ± 0.026	0.677 ± 0.033	0.622 ± 0.037	0.596 ± 0.034	0.545 ± 0.038	0.542 ± 0.04	0.519 ± 0.046
10 µM, coculture fibroblast: Hs5	0.9148 ± 0.0059	0.8625 ± 0.0063	0.841 ± 0.014	0.803 ± 0.017	0.769 ± 0.018	0.729 ± 0.026	0.697 ± 0.038	0.662 ± 0.033	0.645 ± 0.044
10 µM, coculture fibroblast: Hs27A	0.8862 ± 0.00034	0.8469 ± 0.0021	0.8321 ± 0.0041	0.8219 ± 0.0026	0.7714 ± 0.0056	0.705 ± 0.029	0.721 ± 0.022	0.697 ± 0.032	0.662 ± 0.033
10 µM, coculture fibroblast: Hs343T	0.833 ± 0.044	0.737 ± 0.034	0.7017 ± 0.0036	0.6775 ± 0.0014	0.6415 ± 0.0028	0.6085 ± 0.0037	0.577 ± 0.014	0.567 ± 0.019	0.539 ± 0.024
10 µM, coculture fibroblast: WS1	0.733 ± 0.02	0.7158 ± 0.00099	0.615 ± 0.074	0.636 ± 0.029	0.619 ± 0.048	0.596 ± 0.065	0.554 ± 0.067	0.535 ± 0.075	0.501 ± 0.078
100 µM, coculture fibroblast: C12385	0.7737 ± 0.0029	0.734 ± 0.017	0.666 ± 0.025	0.6682 ± 0.0038	0.624 ± 0.0087	0.59 ± 0.0054	0.559 ± 0.0069	0.558 ± 0.02	0.53 ± 0.026
100 µM, coculture fibroblast: H6013	0.915 ± 0.01	0.785 ± 0.042	0.701 ± 0.02	0.635 ± 0.027	0.589 ± 0.012	0.5932 ± 0.0019	0.5672 ± 0.004	0.556 ± 0.0065	0.527 ± 0.021
100 µM, coculture fibroblast: H6019	0.767 ± 0.019	0.637 ± 0.039	0.621 ± 0.049	0.584 ± 0.045	0.577 ± 0.058	0.596 ± 0.066	0.601 ± 0.079	0.648 ± 0.088	0.66 ± 0.1
100 µM, coculture fibroblast: H6076	0.872 ± 0.046	0.788 ± 0.024	0.715 ± 0.009	0.69 ± 0.011	0.6532 ± 0.0031	0.634 ± 0.011	0.6228 ± 0.0041	0.6256 ± 0.0029	0.631 ± 0.016
100 µM, coculture fibroblast: H6231	0.934 ± 0.032	0.87 ± 0.033	0.827 ± 0.035	0.802 ± 0.03	0.766 ± 0.028	0.738 ± 0.04	0.681 ± 0.014	0.657 ± 0.021	0.635 ± 0.021
100 µM, coculture fibroblast: HADF	0.89239 ± 0.00061	0.8468 ± 0.0036	0.8259 ± 0.0013	0.8141 ± 0.0059	0.79029 ± 0.00028	0.736 ± 0.0083	0.7211 ± 0.0045	0.7061 ± 0.0047	0.6622 ± 0.002
100 µM, coculture fibroblast: HCFa	0.894 ± 0.02	0.825 ± 0.0085	0.791 ± 0.037	0.781 ± 0.048	0.753 ± 0.058	0.712 ± 0.05	0.694 ± 0.034	0.668 ± 0.038	0.617 ± 0.036
100 µM, coculture fibroblast: HCPF	0.8646 ± 0.0033	0.795 ± 0.015	0.75 ± 0.018	0.755 ± 0.014	0.7149 ± 0.0022	0.6864 ± 0.0066	0.651 ± 0.0075	0.625 ± 0.022	0.602 ± 0.027
100 µM, coculture fibroblast: HHSteC	0.9029 ± 0.0016	0.8835 ± 0.0014	0.8443 ± 0.0058	0.82 ± 0.0087	0.792 ± 0.011	0.761 ± 0.0055	0.7197 ± 0.0012	0.7 ± 0.0077	0.6549 ± 0.0043
100 µM, coculture fibroblast: HMF	0.888 ± 0.028	0.824 ± 0.017	0.79206 ± 0.00079	0.777 ± 0.0081	0.748 ± 0.017	0.719 ± 0.021	0.669 ± 0.027	0.647 ± 0.03	0.621 ± 0.034
100 µM, coculture fibroblast: HPFa	0.9395 ± 0.0012	0.893 ± 0.01	0.841 ± 0.011	0.802 ± 0.021	0.782 ± 0.015	0.749 ± 0.018	0.7 ± 0.014	0.678 ± 0.017	0.6358 ± 0.0057
100 µM, coculture fibroblast: HUF	0.8377 ± 0.0072	0.7802 ± 0.004	0.798 ± 0.027	0.741 ± 0.034	0.696 ± 0.033	0.683 ± 0.048	0.636 ± 0.037	0.627 ± 0.042	0.609 ± 0.043
100 µM, coculture fibroblast: Hs5	0.891 ± 0.015	0.844 ± 0.037	0.832 ± 0.063	0.82 ± 0.074	0.795 ± 0.071	0.763 ± 0.086	0.742 ± 0.09	0.723 ± 0.093	0.701 ± 0.085
100 µM, coculture fibroblast: Hs27A	0.9069 ± 0.0087	0.86 ± 0.027	0.817 ± 0.019	0.8015 ± 0.008	0.783 ± 0.015	0.7276 ± 0.0049	0.75 ± 0.014	0.737 ± 0.022	0.692 ± 0.02
100 µM, coculture fibroblast: Hs343T	0.902 ± 0.057	0.851 ± 0.035	0.84 ± 0.014	0.8448 ± 0.0037	0.826 ± 0.021	0.798 ± 0.023	0.764 ± 0.034	0.728 ± 0.039	0.695 ± 0.052
100 µM, coculture fibroblast: WS1	0.7609 ± 0.0049	0.7381 ± 0.0036	0.65 ± 0.013	0.6765 ± 0.00043	0.642 ± 0.023	0.614 ± 0.021	0.574 ± 0.019	0.551 ± 0.011	0.521 ± 0.014

± gives the standard deviation of the averaged measurements. The reference is the same well before dosing, and untreated signal decays as well.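 Fibroblast labels denote human fibroblasts, mainly primary ones from uterus (C12385, HUF), lung (H6013), bone (Hs27A), adrenal (HADF) and skin (WS1), plus mammary HMF and breast cancer-associated Hs343T. Cancer cells are basal-like or mesenchymal-like triple-negative breast cancer lines. A hit is a response shift exceeding 3x replicate standard deviation. The tissue of the other fibroblasts is not given here.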
